Literature values as cited in patent publication US20150209273A1, “Pharmaceutical Compositions” (priority 2012, published 2015).
At least one compound was matched to its structure with a doubt left.

Tested on: wild type HIV and clinically relevant mutants
Settings: against wild type HIV and clinically relevant mutants; times more potent than Viread

CCCCCCCCCCCCCCCCOCCCOP(=O)(O)CO[C@H](C)Cn1cnc2c(N)ncnc21 [CMX157, Hexadecyloxypropyl-9-R-[2-(phosphonomethoxy)propyl]-adenine]
potency in vitro relative to Viread: up to 300 times
